Results: the supplement of paper PMC3334620
The full ranking holds about 33,000 sequences; the median of “E-score (-0.5 to 0.5)” is about -0.015, and the highest 2% start at about 0.3. This is one part of the list.

target: T1, Abf1 (UniProt P14164); test: PBM E-score (8-mer binding enrichment) (E-score (-0.5 to 0.5)); higher = stronger / more preferred TF binding; settings: protein concentration: 200 nM; construct: GST-full length
T1 sequence: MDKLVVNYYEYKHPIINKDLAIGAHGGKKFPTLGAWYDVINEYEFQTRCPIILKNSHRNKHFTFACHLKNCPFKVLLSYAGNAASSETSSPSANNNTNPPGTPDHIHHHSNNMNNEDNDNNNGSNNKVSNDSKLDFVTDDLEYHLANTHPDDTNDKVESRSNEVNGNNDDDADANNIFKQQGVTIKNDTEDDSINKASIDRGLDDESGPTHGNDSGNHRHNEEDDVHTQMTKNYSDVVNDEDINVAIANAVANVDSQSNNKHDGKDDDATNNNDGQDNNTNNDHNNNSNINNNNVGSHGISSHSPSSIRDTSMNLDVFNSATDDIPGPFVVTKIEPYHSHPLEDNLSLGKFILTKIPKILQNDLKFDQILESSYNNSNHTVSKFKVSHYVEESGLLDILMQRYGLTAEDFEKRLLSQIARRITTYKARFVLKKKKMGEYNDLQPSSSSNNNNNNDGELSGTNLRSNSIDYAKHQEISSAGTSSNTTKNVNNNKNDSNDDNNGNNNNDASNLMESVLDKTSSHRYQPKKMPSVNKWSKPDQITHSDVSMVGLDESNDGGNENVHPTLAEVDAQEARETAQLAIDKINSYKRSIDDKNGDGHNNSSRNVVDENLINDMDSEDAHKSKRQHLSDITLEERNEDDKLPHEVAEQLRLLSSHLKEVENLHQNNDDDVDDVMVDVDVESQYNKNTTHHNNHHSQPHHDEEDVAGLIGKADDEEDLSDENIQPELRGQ
Experimental: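 Universal 'all 10-mer' protein binding microarrays (Agilent AMADID 015681) probed with GST-tagged S. cerevisiae TFs (full-length or DBD) made by in vitro transcription/translation (PURExpress), about 100-200 nM. Bound TF was detected with fluorescent anti-GST. Each ungapped 8-mer (which stands for itself and its reverse complement) is scored by the PBM enrichment score (E-score), a modified Wilcoxon-Mann-Whitney statistic from -0.5 to +0.5, computed with the Universal PBM Analysis Suite. Scale: above 0.35 generally sequence-specific binding.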

Sequence | PBM E-score
GCCTCAAA | -0.0894
AACCAAGG | -0.11
CAACCACG | 0.0943
GGTTATAA | -0.0328
GCTAAACA | 0.0602
CTATGCCA | -0.205
CTGCAGGC | -0.251
CGAGCACG | 0.0518
AGCGAGAT | 0.0588
CTTAAGGC | -0.19
ATCGCTTC | 0.19
GCAAACCA | -0.113
GCCGAGGC | -0.0428
ATTTGGGC | -0.0914
CGTAGTTC | -0.0223
GGTTAAAC | 0.0906
AATGGGGT | -0.169
CTGGAGCC | -0.191
ACCCCGGT | -0.213
CCTACAGA | -0.109
ATCCTAGG | -0.211
ATTTAGGC | -0.0483
AGCACACC | -0.13
AACCAAAC | -0.0941
ACCAAAAA | 0.133

Sequence | PBM E-score
CAGATCTC | 0.0205
AGGCTCCC | -0.233
ATCGTGCC | 0.276
TCCAACCA | -0.111
ATCTAGGG | 0.122
GAGTGAAA | -0.117
GACGTCTC | 0.148
CCTTGCAC | -0.0394
CTGAGCAA | -0.0714
AGCCGAAG | -0.0813
GAGCGTAC | -0.0668
AGCGATTA | 0.0361
ATTGCCAC | -0.0683
GAACGTTC | 0.107
CTGAAAAG | -0.176
ATCCATGA | -0.0222
CAGGACCA | -0.0331
CCGTGGCC | -0.214
CCCTTCGG | -0.279
AAGGCTCG | -0.0968
ACTACCGC | 0.0527
CAACCTGC | -0.131
ACCGCGGC | -0.037
TGCCTCAA | -0.124
AGACTCCC | -0.11

Sequence | PBM E-score
CACTCCAC | -0.165
ATCTAGGC | -0.188
TCACGAAA | 0.286
CGCCGGCC | -0.248
ACGCTTCG | -0.0404
AGACTCCT | -0.247
CGTCTTTC | 0.0707
ACTTTCTG | 0.0859
CGACGAAC | 0.168
CGCTTATA | 0.189
GCAGTAGA | -0.0802
AGATGCCC | -0.144
CTGTGTCA | -0.119
AAGCAAAG | -0.094
CGCGATCA | 0.199
CCTATTAC | -0.0667
CACCTCTG | -0.0203
ACGACCCT | -0.0266
AGGTGGTA | 0.0995
ACGTTTCT | -0.0999
GCGAATGA | 0.173
AATCCAAC | -0.0279
CTCTCCAC | -0.165
AGGCTGCC | -0.182
TATGTTCA | 0.0909

Some of the entries so far, in CSV form:
Sequence,PBM E-score
CCTACAGA,-0.109
AACCAAAC,-0.0941
ACCAAAAA,0.133
AGCGATTA,0.0361
CGCCGGCC,-0.248

Quoted from the listing.
Under PBM E-score, CTGTGTCA is listed with -0.119
Under PBM E-score, ATCTAGGC is listed with -0.188
Under PBM E-score, ACGTTTCT is listed with -0.0999
Under PBM E-score, CTCTCCAC is listed with -0.165
Under PBM E-score, CACTCCAC is listed with -0.165
Under PBM E-score, CGTCTTTC is listed with 0.0707

The list continues:

Sequence | PBM E-score
CATACACC | -0.164
AACGTTGA | -0.00525
TGCACCAA | -0.161
AACACACG | 0.0217
CGATTGTA | -0.0439
ATTGCCTC | 0.0247
CAAGGGTA | -0.0788
AGCTAAAT | 0.156
GAAAACTA | -0.0964
ATATGGCC | -0.214
CGGAGAGC | -0.156
CGGGCGTC | -0.198
CTCGATTA | 0.0265
GCAAGGCA | -0.119
GGAAACAC | 0.101
ACGTGGCT | -0.145
AGAGTTGC | -0.03
GCAGATGC | -0.106
TTGCTAAA | -0.0249
GTCCGCCA | -0.239
AATGCTTG | -0.0574
ACATTGTA | 0.0682
TCGTTGCA | 0.261
GGCCACAC | -0.0874
TAACAAAA | 0.168

Sequence | PBM E-score
CACAGGCG | -0.275
AAGCCAAT | -0.111
ACTGGTAA | 0.0626
CATTTCAG | -0.00912
GCCGCAGA | -0.0113
GCTCGCCA | -0.0326
AGCAGTTG | -0.119
AAACGTGA | 0.125
GCTCCCAA | -0.196
GACTAAAA | 0.0432
AACTTACC | 0.0558
ACGTATAG | 0.186
CTAACAAC | 0.0908
GTTTCCAA | -0.0169
ATGCGCAG | -0.106
ATAGGATA | 0.107
AGTCCCTA | 0.0654
GGGTCAAA | -0.135
GGAGCAAA | -0.207
ACGGCGGG | 0.106
CGGGGCGC | -0.295
CCAAACCC | 0.0472
AACAGGCC | -0.204
ATGTAATG | 0.204
TTCAGAAA | 0.0364

Sequence | PBM E-score
CAAGCCTC | -0.348
CGAATATA | 0.0491
CGATCAGA | -0.00274
AGTACTTG | 0.0251
TAATTGGA | 0.141
AAGTGATA | 0.39
AAGTTTCG | -0.059
ACCTCAAT | -0.00184
TAAAATCA | 0.216
CGACCGCC | -0.168
CGGGCACA | -0.00948
GCCGATAA | -0.0504
CTCCAGGA | -0.0722
CACGGAGA | 0.024
AACATGTT | 0.0588
GCAGGGGC | -0.286
GTCTGATA | -0.0819
AGAAACCG | -0.0801
CGCTCTAC | 0.0668
TATTGGAA | 0.0784
ACTTTACA | 0.0325
AGGCTCGG | -0.198
CAGCGCAC | -0.111
ATTGCCGG | -0.103
CCCGACTA | -0.112

Sequence | PBM E-score
CGGATAAA | 0.164
ATTTGACA | 0.205
CCATCCGA | -0.0164
ATAATCAA | 0.0595
TCGGGAAA | 0.118
GTCTAATA | -0.0369
TATGATAA | 0.258
AAACGCAT | -0.185
CTAAGGGC | -0.187
GCAATTTA | 0.0461
AGAGTGCC | -0.048
CGGCGGAG | 0.0184
CCTGCTCG | -0.306
CTCGACGA | 0.168
CTCAGGGA | -0.225
GCCAATCC | -0.133
AAAGTAGA | -0.0458
GCACTGGA | -0.0511
GATCGCTA | 0.157
ATGCGGCA | -0.175
GTTTTTGA | 0.17
ATGTACTC | -0.0861
